Values from PubChem BioAssay AID1053208 (Peter MacCallum Cancer Centre, 2014)
The deposit covers about 17,000 reagents; this is a part drawn at random. In the full data, 788 (4.7%) are marked active. 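Calls rest on z-score classes alone; an extra cut-off of viability at most 70% of control was not applied to them.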 Further read-outs or replicates are left out here.

Aim: 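Find knock-downs that sensitise mouse osteosarcoma cells to doxorubicin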 (primary screen)
System: mouse osteosarcoma cells, early-passage culture from an engineered mouse model of fibroblastic bone tumour
Knock-down reagent: siRNA pool against mouse genes, 40 nM
Time to read-out: about 120 h (48 h before drug, then 72 h with drug)
Treatment: doxorubicin 100 nM for 72 h, roughly 30-40% inhibitory dose
Read-out: 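Viability read as ATP luminescence after 72 h of 100 nM doxorubicin or none, duplicate wells averaged, scaled to non-targeting siRNA, then expressed as robust z-scores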
Reading the numbers: viability z-score with doxorubicin: higher = more viable cells under doxorubicin; viability z-score without drug: higher = more viable cells with knock-down alone
Hit rule: 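a pool counts as active when its viability z-score with doxorubicin is -2 or below and its z-score without drug lies between -2 and 2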

What did the screen give for Or4a73?
combined z-score class: no change with or without drug; viability z-score with doxorubicin: 1.57; viability z-score without drug: -0.51; Outcome: inactive

What is on record for Epb41l2?
combined z-score class: no change with or without drug; viability z-score with doxorubicin: -1.12; viability z-score without drug: -1.01; Outcome: inactive

How did the screen score Apoc4?
combined z-score class: no change with or without drug; viability z-score with doxorubicin: 0.22; viability z-score without drug: 0.17; Outcome: inactive

With Mterf3, what does the deposit list?
combined z-score class: high cell count with doxorubicin only; viability z-score with doxorubicin: 2.02; viability z-score without drug: -1.18; Outcome: inactive

2 entries from above, showing only “viability z-score with doxorubicin”:
Apoc4	0.22
Mterf3	2.02

The listing continues:
What did the screen give for Dnajc3?
combined z-score class: no change with or without drug; viability z-score with doxorubicin: 0.9; viability z-score without drug: 1.35; Outcome: inactive

How did the screen score Cachd1?
combined z-score class: no change with or without drug; viability z-score with doxorubicin: 0.67; viability z-score without drug: 1.18; Outcome: inactive

What did the screen give for Syvn1?
combined z-score class: no change with or without drug; viability z-score with doxorubicin: -0.9; viability z-score without drug: -1.85; Outcome: inactive

With Hook1, how do the results read?
combined z-score class: no change with or without drug; viability z-score with doxorubicin: 0.79; viability z-score without drug: 0.51; Outcome: inactive

Which result is listed for Kir3dl2?
combined z-score class: no change with or without drug; viability z-score with doxorubicin: -0.9; viability z-score without drug: -0.17; Outcome: inactive

With Dysf, how do the results read?
combined z-score class: no change with or without drug; viability z-score with doxorubicin: 1.57; viability z-score without drug: 0.84; Outcome: inactive

With Gmppb, how do the results read?
combined z-score class: no change with or without drug; viability z-score with doxorubicin: 0; viability z-score without drug: 0.17; Outcome: inactive

Which result is listed for Ndufb2?
combined z-score class: no change with or without drug; viability z-score with doxorubicin: 0.67; viability z-score without drug: -1.85; Outcome: inactive
